According to patent US4155931A, “Ureylene phenylene anionic naphthalenesulfonic acids” (American Cyanamid Company, priority 1978, dated 1979):
Where a name gives a salt, the structure may show the parent alone. At least one read-out could not be matched to a standard name with certainty.

The molecules below were run on shunt pathway (assay: Test Code 036 (C-Shunt inhibitor): lysis of fragile human erythrocytes in autologous serum via shunt pathway activated by cobra venom factor). Conditions: Table I; two-fold serial dilution assay, higher well number indicates higher activity.
Type: cell-based
Description: An active inhibitor protects C2 from C1 and C4; (ii) Test Code 035 (C3-C9 inhibitor)--This test determines the ability of the late components of human complement (C3-C9) to lyse EAC 142 in the presence of appropriate dilutions of the test compound. An active inhibitor protects EAC 142 from lysis by human C3-C9; (iii) Test Code 036 (C-Shunt inhibitor)--In this test human erythrocytes rendered fragile are lysed in autologous serum via the shunt pathway activated by cobra venom factor in the presence of appropriate dilutions of the test compound. Inhibition of the shunt pathway results in failure of lysis; (iv) Forssman Vasculitis Test--Here, the well known complement dependent lesion, Forssman vasculitis, is produced in guinea pigs by intradermal injection of rabbit anti-Forssman antiserum. The lesion is measured in terms of diameter, edema and hemorrhage and the extent to which a combined index of these is inhibited by prior intraperitoneal injection of the test compound at 200 mg/kg is then reported, unless otherwise stated; (v) Forssman Shock Test--Lethal shock is produced in guinea pigs by an i.v. injection of anti-Forssman antiserum and the harmonic mean death time of treated guinea pigs is compared with that of simultaneous controls; (vi) Complement Level Reduction Test--In this test, the above dosed guinea pigs, or others, are bled for serum and the complement level is determined in undiluted serum by the capillary tube method of U.S. Pat. No. 3,876,376 and compared to undosed control guinea pigs; and (vii) Cap 50 Test--Here, appropriate amounts of the test compound are added to a pool of guinea pig serum in vitro, after which the undiluted serum capillary tube assay referred to above is run. The concentration of compound inhibiting 50% is reported.
**Activity in wells a serial dilution assay. Higher well number indicates
higher activity. The serial dilutions are two-fold.

Structure (SMILES)	Shunt Inhibition 036
Cc1ccc(C(=O)Nc2ccc(S(=O)(=O)O)c3cc(S(=O)(=O)O)cc(S(=O)(=O)O)c23)cc1NC(=O)c1cc(NC(=O)Nc2cc(C(=O)O)cc(C(=O)Nc3cc(C(=O)Nc4ccc(S(=O)(=O)O)c5cc(S(=O)(=O)O)cc(S(=O)(=O)O)c45)ccc3C)c2)cc(C(=O)O)c1 [5,5"-Ureylenebis[2'-methyl-5"-[(4,6,8-trisulfo-1-naphthyl)carbamoyl]isophthalanilic acid], octasodium salt]	+2 Wells
Cc1ccc(C(=O)Nc2ccc(S(=O)(=O)[O-])c3cc(S(=O)(=O)[O-])cc(S(=O)(=O)[O-])c23)cc1NC(=O)c1cc(NC(=O)Nc2cc(C(=O)O)cc(C(=O)Nc3cc(C(=O)Nc4ccc(S(=O)(=O)[O-])c5cc(S(=O)(=O)[O-])cc(S(=O)(=O)[O-])c45)ccc3C)c2)cc(C(=O)O)c1.[Na+].[Na+].[Na+].[Na+].[Na+].[Na+] [5,5"-Ureylenebis[2'-methyl-5'-[(4,6,8-trisulfo-1-naphthyl)carbamoyl]isophthalanilic acid], hexasodium salt]	+2 Wells
Cc1ccc(C(=O)Nc2cc(C(=O)O)cc(C(=O)Nc3ccc(S(=O)(=O)O)c4cc(S(=O)(=O)O)cc(S(=O)(=O)O)c34)c2)cc1NC(=O)Nc1cc(C(=O)Nc2cc(C(=O)O)cc(C(=O)Nc3ccc(S(=O)(=O)O)c4cc(S(=O)(=O)O)cc(S(=O)(=O)O)c34)c2)ccc1C [5,5'-Ureylenebis[(4-methyl-3,1-phenylenecarbonyl)imino]bis[N-(4,6,8-trisulfo-1-naphthyl)isophthalamic acid], hexasodium slt]	+1 Wells
Cc1ccc(NC(=O)c2ccc(NC(=O)Nc3ccc(C(=O)Nc4ccc(C)c(S(=O)(=O)Nc5cc(S(=O)(=O)O)cc6cc(S(=O)(=O)O)cc(S(=O)(=O)O)c56)c4)c(S(=O)(=O)O)c3)cc2S(=O)(=O)O)cc1S(=O)(=O)Nc1cc(S(=O)(=O)O)cc2cc(S(=O)(=O)O)cc(S(=O)(=O)O)c12 [8,8'-[Ureylenebis[[(2-sulfo-4,1-phenylenecarbonyl)imino](2-methyl-4,1-phenylene)sulfonyl]imino]]di-1,3,6-naphthalenetrisulfonic acid, octasodium salt]	+2 Wells
Cc1ccc(C(=O)Nc2ccc(S(=O)(=O)[O-])c3cc(S(=O)(=O)[O-])cc(S(=O)(=O)[O-])c23)cc1NC(=O)c1ccc(NC(=O)Nc2ccc(C(=O)Nc3cc(C(=O)Nc4ccc(S(=O)(=O)[O-])c5cc(S(=O)(=O)[O-])cc(S(=O)(=O)[O-])c45)ccc3C)c(S(=O)(=O)[O-])c2)cc1S(=O)(=O)[O-].[Na+].[Na+].[Na+].[Na+].[Na+].[Na+].[Na+].[Na+] [8,8'-[Ureylenebis[[(2-sulfo-4,1-phenylenecarbonyl)imino]-(4-methyl-3,1-phenylenecarbonyl)imino]]di-1,3,5-naphthalenetrisulfonic acid, octasodium salt]	+2 Wells
